Source: PMC12011305
Results are given in words; binding and its absence hold for the method and conditions named. In cells and extracts the contact can be indirect. Some results given as binding are weak or reduced against the parent protein; the word gives no strength. For part of these data: Sequences can lack the tags named with a protein.

Sequences of proteins named here, by UniProt entry; tags and fusion partners are left off.
UniProt P19525: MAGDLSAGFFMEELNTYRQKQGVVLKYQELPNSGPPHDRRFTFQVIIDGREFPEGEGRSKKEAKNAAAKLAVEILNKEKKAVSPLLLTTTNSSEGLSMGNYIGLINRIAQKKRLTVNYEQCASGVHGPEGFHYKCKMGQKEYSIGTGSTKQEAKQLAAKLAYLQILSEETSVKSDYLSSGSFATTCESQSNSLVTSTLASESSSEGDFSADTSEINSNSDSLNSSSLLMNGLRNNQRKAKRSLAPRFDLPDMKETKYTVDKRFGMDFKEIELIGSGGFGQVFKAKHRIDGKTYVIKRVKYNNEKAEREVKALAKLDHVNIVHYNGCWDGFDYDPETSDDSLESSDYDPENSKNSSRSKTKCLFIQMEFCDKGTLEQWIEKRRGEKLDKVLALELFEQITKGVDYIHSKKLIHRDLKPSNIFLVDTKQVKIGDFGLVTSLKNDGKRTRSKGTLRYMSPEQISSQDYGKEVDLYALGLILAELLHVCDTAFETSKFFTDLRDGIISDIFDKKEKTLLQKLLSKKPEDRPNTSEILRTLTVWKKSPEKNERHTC

How the values were obtained:
[1] = biological target: T1, GFP-tagged ADAR1 p150 (plasmid pmGFP-ADAR1-p150) (UniProt P55265); assay: co-IP; anti-GFP antibody on RIPA lysates of ADAR1 KO cells transfected with ADAR1p110GFP or ADAR1p150GFP plasmids and infected with HSV-1 (MOI 3, 7 h.p.i.); Dynabeads G; Western blot for PKR
T1 sequence: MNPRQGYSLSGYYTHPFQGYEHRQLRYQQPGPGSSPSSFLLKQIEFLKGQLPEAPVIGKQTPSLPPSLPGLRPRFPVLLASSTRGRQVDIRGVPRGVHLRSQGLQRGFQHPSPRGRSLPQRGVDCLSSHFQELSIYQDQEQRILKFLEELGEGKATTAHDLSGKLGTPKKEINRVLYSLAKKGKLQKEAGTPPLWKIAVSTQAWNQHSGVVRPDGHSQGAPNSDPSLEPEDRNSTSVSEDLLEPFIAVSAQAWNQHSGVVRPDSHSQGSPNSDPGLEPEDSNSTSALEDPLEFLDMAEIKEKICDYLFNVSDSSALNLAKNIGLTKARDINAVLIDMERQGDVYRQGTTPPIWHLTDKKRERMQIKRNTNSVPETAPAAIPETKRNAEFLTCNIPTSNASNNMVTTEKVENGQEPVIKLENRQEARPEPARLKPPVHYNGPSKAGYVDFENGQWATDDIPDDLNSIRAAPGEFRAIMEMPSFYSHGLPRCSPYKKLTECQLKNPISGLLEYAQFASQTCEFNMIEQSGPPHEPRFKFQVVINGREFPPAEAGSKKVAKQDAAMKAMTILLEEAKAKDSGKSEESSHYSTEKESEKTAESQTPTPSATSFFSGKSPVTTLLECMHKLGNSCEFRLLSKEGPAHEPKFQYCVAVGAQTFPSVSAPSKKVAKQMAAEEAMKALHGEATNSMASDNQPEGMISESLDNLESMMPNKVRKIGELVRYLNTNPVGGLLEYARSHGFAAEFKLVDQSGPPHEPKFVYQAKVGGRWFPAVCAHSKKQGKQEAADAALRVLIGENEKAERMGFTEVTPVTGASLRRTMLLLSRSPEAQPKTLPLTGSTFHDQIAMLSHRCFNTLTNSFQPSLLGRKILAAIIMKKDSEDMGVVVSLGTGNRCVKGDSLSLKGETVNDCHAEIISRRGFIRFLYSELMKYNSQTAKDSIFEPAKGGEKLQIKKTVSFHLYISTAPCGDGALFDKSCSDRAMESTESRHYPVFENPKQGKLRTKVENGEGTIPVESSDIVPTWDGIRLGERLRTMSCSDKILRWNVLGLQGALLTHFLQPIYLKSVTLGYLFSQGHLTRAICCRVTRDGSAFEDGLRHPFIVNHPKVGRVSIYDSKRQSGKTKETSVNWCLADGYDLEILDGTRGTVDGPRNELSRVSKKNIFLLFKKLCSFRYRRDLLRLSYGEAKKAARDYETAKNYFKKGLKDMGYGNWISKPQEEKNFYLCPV

[2] = biological target: protein kinase R (PKR) (human (endogenous in HEK293)) (UniProt P19525); assay: co-IP; anti-PKR antibody (1:50) on RIPA lysates of HEK293 ADAR1 WT cells, mock infected, treated with 10 ng/mL IFN-beta or infected with HSV-1 (MOI 3, 7 h.p.i.); Dynabeads G, overnight at 4 C, five washes with RIPA buffer; Western blot
[3] = biological target: protein kinase R (PKR) (human (endogenous in HEK293)) (UniProt P19525); assay: co-IP; anti-PKR antibody on RIPA lysates of HEK293 WT cells infected with HSV-1 (MOI 3, 7 h.p.i.), lysates treated with RNase A (20 ug/mL) and RNase III (2 U/mL); Dynabeads G; Western blot

How did the binding [1] turn out when “protein kinase R (PKR) (from UniProt P19525 1-551)” was run?
The binding was “binds”.

B1: ADAR1 p150 (interferon-inducible 150 kDa isoform of adenosine deaminase acting on dsRNA 1) (protein, UniProt P55265-1 1-1226)
chain: MNPRQGYSLSGYYTHPFQGYEHRQLRYQQPGPGSSPSSFLLKQIEFLKGQLPEAPVIGKQTPSLPPSLPGLRPRFPVLLASSTRGRQVDIRGVPRGVHLRSQGLQRGFQHPSPRGRSLPQRGVDCLSSHFQELSIYQDQEQRILKFLEELGEGKATTAHDLSGKLGTPKKEINRVLYSLAKKGKLQKEAGTPPLWKIAVSTQAWNQHSGVVRPDGHSQGAPNSDPSLEPEDRNSTSVSEDLLEPFIAVSAQAWNQHSGVVRPDSHSQGSPNSDPGLEPEDSNSTSALEDPLEFLDMAEIKEKICDYLFNVSDSSALNLAKNIGLTKARDINAVLIDMERQGDVYRQGTTPPIWHLTDKKRERMQIKRNTNSVPETAPAAIPETKRNAEFLTCNIPTSNASNNMVTTEKVENGQEPVIKLENRQEARPEPARLKPPVHYNGPSKAGYVDFENGQWATDDIPDDLNSIRAAPGEFRAIMEMPSFYSHGLPRCSPYKKLTECQLKNPISGLLEYAQFASQTCEFNMIEQSGPPHEPRFKFQVVINGREFPPAEAGSKKVAKQDAAMKAMTILLEEAKAKDSGKSEESSHYSTEKESEKTAESQTPTPSATSFFSGKSPVTTLLECMHKLGNSCEFRLLSKEGPAHEPKFQYCVAVGAQTFPSVSAPSKKVAKQMAAEEAMKALHGEATNSMASDNQPEGMISESLDNLESMMPNKVRKIGELVRYLNTNPVGGLLEYARSHGFAAEFKLVDQSGPPHEPKFVYQAKVGGRWFPAVCAHSKKQGKQEAADAALRVLIGENEKAERMGFTEVTPVTGASLRRTMLLLSRSPEAQPKTLPLTGSTFHDQIAMLSHRCFNTLTNSFQPSLLGRKILAAIIMKKDSEDMGVVVSLGTGNRCVKGDSLSLKGETVNDCHAEIISRRGFIRFLYSELMKYNSQTAKDSIFEPAKGGEKLQIKKTVSFHLYISTAPCGDGALFDKSCSDRAMESTESRHYPVFENPKQGKLRTKVENGEGTIPVESSDIVPTWDGIRLGERLRTMSCSDKILRWNVLGLQGALLTHFLQPIYLKSVTLGYLFSQGHLTRAICCRVTRDGSAFEDGLRHPFIVNHPKVGRVSIYDSKRQSGKTKETSVNWCLADGYDLEILDGTRGTVDGPRNELSRVSKKNIFLLFKKLCSFRYRRDLLRLSYGEAKKAARDYETAKNYFKKGLKDMGYGNWISKPQEEKNFYLCPV
For B1, which binding [2] is on record?
The binding was “binds”.

And the binding [3]?
The binding was “binds weakly”.
